{
  "source": "patent US12011459B2",
  "about": "“Methods for manufacturing T cells by direct sorting and compositions thereof” (Immatics US, Inc., priority 2019, dated 2024)",
  "key": {"[1]": {"system": "Col6A3 REP1 cells (αCol6A3 T cells)", "experiment": "Col6A3-002 2D tetramer staining of Col6A3 REP1 cells with dasatinib treatment, flow cytometry", "assay_type": "cell-based", "conditions": "P=0.006101, FIG. 32", "procedure": "To determine which staining conditions that may provide higher staining index (SI), indicating better separation of cells stained positive from cells stained negative, and lower false negative rate, Col6A3 REP1 cells, which were prepared by rapid expansion protocol (REP), were stained±DAS treatment (at 37° C.), ±irrelevant peptide tetramer mix, and staining at RT or 37° C.\nStaining index (SI) may be calculated by using formula (I): SI=(mean PE+mean BV421 2Dtet+)−(mean PE+mean BV421 2Dtet−)/2×(SD PE+SD BV421 2Dtet−). […] (P=0.316695), and ±irrelevant peptide tetramer mix (P=0.597223).\nThe estimation per 1×10^6 based on flow %, which indicates numbers of peptide-specific T cells per 1×10^6 of CD45+ cells, may be calculated by the formula: (2Dtet+%×1×10^6/100)−((2Dtet+%×1×10^6/100)×irrelevant peptide tetramer mix+%/100)). Table 14 summarizes the estimations under the staining conditions A-G. DAS treatment was performed at 37° C. for 30 minutes."}, "PBMC": {"system": "PBMC", "experiment": "Col6A3-002 2D tetramer staining of PBMC with dasatinib treatment, flow cytometry", "assay_type": "cell-based, human", "procedure": "To compare the effects of PKI and temperatures on pMHC multimer staining, healthy donor peripheral blood mononuclear cells (PBMCs) were pretreated with 50 nM Dasatinib (FIG. 21A) or untreated (FIG. 21B) and then stained with two Col6A3-002 peptide (FLLDGSANV (SEQ ID NO: 141)) (Col) tetramers (2Dtet) conjugated to streptavidin BV421 and PE, and five different irrelevant APC tetramers (peptide 1, peptide 2, peptide 3, peptide 4, and peptide 5) at either 37° C. (FIG. 21A) or room-temperature (RT) (FIG. 21B) for 30 minutes. Following tetramer staining, samples were counterstained with tetramer stabilizing antibodies staining against PE and APC at 4° C., followed by staining with anti-CD45 PE-Cy7 antibody at 4° C.\nTo determine which staining conditions that may provide lowest background and lowest false positive rate, PBMC were stained with or without PKI treatment, e.g., dasatinib (DAS), with or without irrelevant peptide tetramer mix at different tetramer staining temperatures (Hadrup et al., Nat. Methods, 2009, 6:520-526; the content of which is hereby incorporated by reference in its entirety). For example, PBMC cells were stained with 2D Tet (PE+BV421) in the presence or in the absence of irrelevant peptide tetramer mix, e.g., five different irrelevant peptides (e.g., Col6A3-015 (YLMDDFSSL (SEQ ID NO: 16)), MAG-003 (KVLEHVVRV (SEQ ID NO: 118)), MAGEC2-001 (TLDEKVAEL (SEQ ID NO: 161)), MXRA5-003 (LLWGHPRVALA (SEQ ID NO: 18), and MAGEA1-003 (KVLEYVIKV (SEQ ID NO: 105)) APC tetramers±DAS treatment, at 37° C. or at room temperature (RT). DAS treatments were performed at 37° C.\nTo investigate PBMC staining under conditions D and G, PBMC (12.5×10^6 cells/ml) obtained from 4 donors were stained±DAS treatment (50 nM, at 37° C.), Col6A3-002 BV421 tetramer (3 μg/ml) and Col6A3-002 PE Tetramer (2.5 μg/ml), fluorochrome-labeled anti-CD45 antibody, e.g., PE-Cy7 mouse anti-human CD45 (BD Biosciences), Col6A3-002 BV421 tetramer (3 μg/ml), and APC irrelevant peptides (n=5, e.g., Col6A3-015 (YLMDDFSSL (SEQ ID NO: 16)), MAG-003 (KVLEHWRV (SEQ ID NO: 118)), MAGEC2-001 (TLDEKVAEL (SEQ ID NO: 161)), MXRA5-003 (LLWGHPRVALA (SEQ ID NO: 18), and MAGEA1-003 (KVLEYVIKV (SEQ ID NO: 105)) tetramer mix (3 μg/ml) with all staining, spins, and washes at 4° C.\nThe experiments shown in FIGS. 37A-37D were repeated using a different fluorochrome-labeled anti-CD45 antibody, e.g., PE-Cy™7 mouse anti-human CD45 (BD Biosciences). PBMC (10×10^6 cells/nil) obtained from 4 donors were stained with or without DAS treatment (50 nM, at 37° C.), BV421 (3 μg/ml), Col6A3-002 2D Tet (PE+BV421) (2.5 μg/ml), PerCP-Cy™5.5 mouse anti-human CD45 (BD Biosciences), Col6A3-002 BV421 tetramer (3 μg/ml), and APC (n=5) irrelevant tetramer mix (3 μg/ml) with all staining, spins, and washes at 4° C."}},
  "note": "At least one compound was matched to its structure with a doubt left.",
  "data": [
    {"smiles": "Cc1nc(Nc2ncc(C(=O)Nc3c(C)cccc3Cl)s2)cc(N2CCN(CCO)CC2)n1", "note": "[Dasatinib, dasatinib]", "values": [
      {"measurement": "staining index (SI) compared with without DAS treatment", "setting": "[1]", "result": "significantly increases SI"},
      {"measurement": "frequency of detecting 2D Tet-positive cells compared with without DAS treatment", "setting": "PBMC; FIG. 40C", "result": "tends to enhance the frequency"},
      {"measurement": "MFI of 2D Tet+BV421 compared with without DAS treatment", "setting": "PBMC; FIG. 40D", "result": "tends to decrease MFI"},
      {"measurement": "MFI of 2D Tet+PE compared with without DAS treatment", "setting": "PBMC; FIG. 40D", "result": "may not affect MFI"},
      {"measurement": "detection of 2D Tet (PE+BV421)-positive and irrelevant peptide-negative cells compared with without DAS treatment", "setting": "PBMC; all staining, spins, washes at 4° C., FIG. 37B", "result": "increases the detection"},
      {"measurement": "mean fluorescence intensity (MFI) for 2D Tet+PE and 2D Tet+BV421 compared with without DAS treatment", "setting": "PBMC; all staining, spins, washes at 4° C., FIG. 37C", "result": "decreases mean fluorescence intensity (MFI)"},
      {"measurement": "detection of background CD45+ 2D Tet-positive cells compared with without DAS treatment", "setting": "PBMC; n=4, T-test, p=0.527373, FIG. 29", "result": "may not significantly increase"}
    ]}
  ]
}
